US20240199695A1 (TRANSFERT PLUS S E C, published 2024)
No constants are given. Whether binding was seen depends on the method and setting. Some results given as binding are weak or reduced against the parent protein; the word gives no strength.

Protein sequences, listed by entry. Tags and fused reporters are not part of them. Residues count along the entry.
UniProt Q99523, residues 78-755: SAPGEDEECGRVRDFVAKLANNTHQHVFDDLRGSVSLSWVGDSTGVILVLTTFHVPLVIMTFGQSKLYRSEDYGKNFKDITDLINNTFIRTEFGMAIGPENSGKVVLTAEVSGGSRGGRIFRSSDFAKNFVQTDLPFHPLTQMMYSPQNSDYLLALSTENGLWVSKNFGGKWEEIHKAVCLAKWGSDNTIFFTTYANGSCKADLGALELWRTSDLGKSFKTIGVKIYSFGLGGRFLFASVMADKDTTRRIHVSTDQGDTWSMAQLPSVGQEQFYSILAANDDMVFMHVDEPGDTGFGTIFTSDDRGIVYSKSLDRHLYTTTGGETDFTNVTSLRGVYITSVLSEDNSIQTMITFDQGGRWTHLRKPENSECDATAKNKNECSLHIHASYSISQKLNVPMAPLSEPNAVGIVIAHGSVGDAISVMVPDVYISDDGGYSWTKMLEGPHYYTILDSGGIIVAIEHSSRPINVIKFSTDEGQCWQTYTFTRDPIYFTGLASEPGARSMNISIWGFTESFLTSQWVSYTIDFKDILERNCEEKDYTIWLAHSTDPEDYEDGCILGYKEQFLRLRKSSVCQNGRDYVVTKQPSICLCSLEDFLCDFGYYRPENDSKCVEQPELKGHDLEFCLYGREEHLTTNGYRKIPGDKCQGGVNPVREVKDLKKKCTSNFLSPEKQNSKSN

Legend:
soluble form of sortilin [1] = molecular target: soluble form of sortilin (UniProt Q99523); assay: SPR; biotinylated KBP-103 immobilised on a streptavidin sensor chip, soluble sortilin injected over it
soluble form of sortilin [2] = molecular target: soluble form of sortilin (UniProt Q99523); assay: SPR; biotinylated KBP-103 on a streptavidin chip, soluble sortilin injected
soluble form of sortilin [3] = molecular target: soluble form of sortilin (UniProt Q99523); assay: SPR; biotinylated Katana peptide on a streptavidin chip, soluble sortilin injected
soluble form of sortilin [4] = molecular target: soluble form of sortilin (UniProt Q99523); assay: SPR

Measured: binding

IKLSGGVQAKAGVINMFKSESYK (biotin molecule connected at the C-terminal end, K(Biotin)) [KBP-103: …(Biotin)]
binds: all assays above
